Data as given in PubChem BioAssay AID1259308 (NCATS, 2017).
Test: 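Candidate targets for better recombinant protein yield in mammalian cells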 (primary screen). System: human HEK293 embryonic kidney cells stably expressing firefly luciferase (HEK-CMV-Luc2-Hygro). Knock-down reagent: single siRNA against human genes, 0.8 pmol siRNA per well. Timing: 72 h. Read-out: 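Luciferase light (ONE-Glo) measured on one replicate plate set and viability (CellTiter-Glo) on the other, scaled to a negative control siRNA, with robust z-scores and luciferase per cell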. Direction: total luciferase, z-score: higher = more reporter protein produced. Call rule: 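An siRNA counts as active if its total luciferase robust z-score exceeds 3; genes with two or more such siRNAs out of three were retested with fresh siRNAs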. Meaning of the calls: active = raised luciferase; inactive = no rise.
The whole screen tested about 59,000 reagents; below is a part drawn at random. About 1,510 of all reagents (2.6%) were called active. 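Calls use total luciferase alone and ignore viability, so some active siRNAs may act by altering cell number.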 The numbers tell different reagents against one gene apart. Not all columns of the deposit are shown.

Gene | reagent no. | total luciferase, z-score | Call
ARFGAP2 (ARF GTPase activating protein 2) | 1 | 0.116 | inactive
ARFGAP2 (ARF GTPase activating protein 2) | 2 | -2.03 | inactive
ARFGAP2 (ARF GTPase activating protein 2) | 3 | -0.797 | inactive
SP2 (Sp2 transcription factor) | 1 | -0.647 | inactive
SP2 (Sp2 transcription factor) | 2 | -0.0426 | inactive
SP2 (Sp2 transcription factor) | 3 | 0.623 | inactive
SLC29A1 | 1 | -0.344 | inactive
SLC29A1 | 2 | -1.97 | inactive
SLC29A1 | 3 | 0.932 | inactive
CNR1 (cannabinoid receptor 1) | 1 | 0.878 | inactive
CNR1 (cannabinoid receptor 1) | 2 | -0.164 | inactive
CNR1 (cannabinoid receptor 1) | 3 | 1.26 | inactive
SIGLEC8 (sialic acid binding Ig like lectin 8) | 1 | -1.17 | inactive
SIGLEC8 (sialic acid binding Ig like lectin 8) | 2 | -1.48 | inactive
SIGLEC8 (sialic acid binding Ig like lectin 8) | 3 | -0.568 | inactive

Quoted from the entries so far (4 entries):
Gene | reagent no. | total luciferase, z-score | Call
SLC29A1 | 1 | -0.344 | inactive
SLC29A1 | 2 | -1.97 | inactive
SLC29A1 | 3 | 0.932 | inactive
CNR1 (cannabinoid receptor 1) | 1 | 0.878 | inactive

The listing continues.
Gene | reagent no. | total luciferase, z-score | Call
ANKRD9 (ankyrin repeat domain 9) | 1 | -0.248 | inactive
ANKRD9 (ankyrin repeat domain 9) | 2 | 1.7 | inactive
ANKRD9 (ankyrin repeat domain 9) | 3 | -0.491 | inactive
GOLGA1 (golgin A1) | 1 | 1.23 | inactive
GOLGA1 (golgin A1) | 2 | 1.19 | inactive
GOLGA1 (golgin A1) | 3 | 0.519 | inactive
CNOT3 (CCR4-NOT transcription complex subunit 3) | 1 | 3.99 | active
CNOT3 (CCR4-NOT transcription complex subunit 3) | 2 | -2.03 | inactive
CNOT3 (CCR4-NOT transcription complex subunit 3) | 3 | 0.619 | inactive
ZNF619 (zinc finger protein 619) | 1 | 1.37 | inactive
ZNF619 (zinc finger protein 619) | 2 | 0.612 | inactive
ZNF619 (zinc finger protein 619) | 3 | -0.571 | inactive
LSR (lipolysis stimulated lipoprotein receptor) | 1 | 1.71 | inactive
LSR (lipolysis stimulated lipoprotein receptor) | 2 | 0.0765 | inactive
LSR (lipolysis stimulated lipoprotein receptor) | 3 | 0.897 | inactive
BLID (BH3-like motif containing, cell death inducer) | 1 | 1.87 | inactive
BLID (BH3-like motif containing, cell death inducer) | 2 | 0.803 | inactive
BLID (BH3-like motif containing, cell death inducer) | 3 | -0.795 | inactive
PSMC4 (proteasome 26S subunit, ATPase 4) | 1 | 0.768 | inactive
PSMC4 (proteasome 26S subunit, ATPase 4) | 2 | -0.531 | inactive
PSMC4 (proteasome 26S subunit, ATPase 4) | 3 | 0.0605 | inactive
CABP7 (calcium binding protein 7) | 1 | 0.349 | inactive
CABP7 (calcium binding protein 7) | 2 | -0.0477 | inactive
CABP7 (calcium binding protein 7) | 3 | 0.303 | inactive
